Data as given in the supplement of paper PMC8728848.
This is one part of the list.

Legend:
Test in all cases: glycan array binding signal (z-score within array); higher = stronger binding
Details in all cases: glycan notation: IUPAC condensed, linker removed
[1] = target: Neu5Ac(a2-3)Gal(b1-4)GlcNAc(b1-2)[Neu5Ac(a2-3)Gal(b1-4)GlcNAc(b1-4)]Man(a1-3)[GlcNAc(b1-4)][Neu5Ac(a2-3)Gal(b1-4)GlcNAc(b1-2)[Neu5Ac(a2-3)Gal(b1-4)GlcNAc(b1-6)]Man(a1-6)]Man(b1-4)GlcNAc(b1-4)GlcNAc
Summary of the method: (§1)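 The binding signal is a Z-score computed within each array and averaged over linkers. Arrays of the same protein sequence at different concentrations or buffers were also averaged together. Data originate from 3228 arrays in the Consortium for Functional Glycomics database, kept only where the protein sequence was available.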

[2] = target: Neu5Ac(a2-3)Gal(b1-4)GlcNAc(b1-2)[Neu5Ac(a2-3)Gal(b1-4)GlcNAc(b1-4)]Man(a1-3)[GlcNAc(b1-4)][Neu5Ac(a2-3)Gal(b1-4)GlcNAc(b1-4)Man(a1-6)]Man(b1-4)GlcNAc(b1-4)GlcNAc
Summary of the method: as §1

[3] = target: Neu5Ac(a2-3)Gal(b1-4)GlcNAc(b1-2)[Neu5Ac(a2-3)Gal(b1-4)GlcNAc(b1-6)]Man(a1-6)[Neu5Ac(a2-3)Gal(b1-4)GlcNAc(b1-2)Man(a1-3)]Man(b1-4)GlcNAc(b1-4)GlcNAc
Summary of the method: as §1

[4] = target: Neu5Ac(a2-3)Gal(b1-4)GlcNAc(b1-2)[Neu5Ac(a2-3)Gal(b1-4)GlcNAc(b1-6)]Man(a1-6)[Neu5Ac(a2-3)Gal(b1-4)GlcNAc(b1-2)Man(a1-3)][GlcNAc(b1-4)]Man(b1-4)GlcNAc(b1-4)GlcNAc
Summary of the method: as §1

[5] = target: Neu5Ac(a2-3)Gal(b1-4)GlcNAc(b1-3)Gal
Summary of the method: as §1

[6] = target: Neu5Ac(a2-3)Gal(b1-4)GlcNAc(b1-3)Gal(b1-3)GlcNAc
Summary of the method: as §1

[7] = target: Neu5Ac(a2-3)Gal(b1-4)GlcNAc(b1-3)Gal(b1-4)GlcNAc
Summary of the method: as §1

[8] = target: Neu5Ac(a2-3)Gal(b1-4)GlcNAc(b1-3)Gal(b1-4)GlcNAc(b1-2)Man(a1-3)[Neu5Ac(a2-3)Gal(b1-4)GlcNAc(b1-3)Gal(b1-4)GlcNAc(b1-2)Man(a1-6)]Man(b1-4)GlcNAc(b1-4)GlcNAc
Summary of the method: as §1

[9] = target: Neu5Ac(a2-3)Gal(b1-4)GlcNAc(b1-3)Gal(b1-4)GlcNAc(b1-3)Gal(b1-4)GlcNAc
Summary of the method: as §1

[10] = target: Neu5Ac(a2-3)Gal(b1-4)GlcNAc(b1-3)Gal(b1-4)GlcNAc(b1-3)Gal(b1-4)GlcNAc(b1-2)Man(a1-3)[Neu5Ac(a2-3)Gal(b1-4)GlcNAc(b1-3)Gal(b1-4)GlcNAc(b1-3)Gal(b1-4)GlcNAc(b1-2)Man(a1-6)]GalNAc
Summary of the method: as §1

[11] = target: Neu5Ac(a2-3)Gal(b1-4)GlcNAc(b1-3)Gal(b1-4)GlcNAc(b1-3)GalNAc
Summary of the method: as §1

[12] = target: Neu5Ac(a2-3)Gal(b1-4)GlcNAc(b1-3)Gal(b1-4)GlcNAc(b1-3)[Neu5Ac(a2-3)Gal(b1-4)GlcNAc(b1-3)Gal(b1-4)GlcNAc(b1-6)]GalNAc
Summary of the method: as §1

[13] = target: Neu5Ac(a2-3)Gal(b1-4)GlcNAc(b1-3)Gal(b1-4)GlcNAc(b1-6)[Gal(b1-3)]GalNAc
Summary of the method: as §1

[14] = target: Neu5Ac(a2-3)Gal(b1-4)GlcNAc(b1-3)Gal(b1-4)[Fuc(a1-3)]GlcNAc
Summary of the method: as §1

[15] = target: Neu5Ac(a2-3)Gal(b1-4)GlcNAc(b1-3)GalNAc
Summary of the method: as §1

[16] = target: Neu5Ac(a2-3)Gal(b1-4)GlcNAc(b1-3)[Neu5Ac(a2-3)Gal(b1-4)GlcNAc(b1-6)]GalNAc
Summary of the method: as §1

[17] = target: Neu5Ac(a2-3)Gal(b1-4)GlcNAc(b1-6)GalNAc
Summary of the method: as §1

[18] = target: Neu5Ac(a2-3)Gal(b1-4)GlcNAc(b1-6)[Gal(b1-3)]GalNAc
Summary of the method: as §1

[19] = target: Neu5Ac(a2-3)Gal(b1-4)GlcNAc(b1-6)[Neu5Ac(a2-3)Gal(b1-3)]GalNAc
Summary of the method: as §1

[20] = target: Neu5Ac(a2-3)Gal(b1-4)GlcNAc6S
Summary of the method: as §1

[21] = target: Neu5Ac(a2-3)Gal(b1-4)[Fuc(a1-3)]GlcNAc
Summary of the method: as §1

[22] = target: Neu5Ac(a2-3)Gal(b1-4)[Fuc(a1-3)]GlcNAc(b1-2)Man
Summary of the method: as §1

[23] = target: Neu5Ac(a2-3)Gal(b1-4)[Fuc(a1-3)]GlcNAc(b1-3)Gal
Summary of the method: as §1

[24] = target: Neu5Ac(a2-3)Gal(b1-4)[Fuc(a1-3)]GlcNAc(b1-3)Gal(b1-4)GlcNAc
Summary of the method: as §1

[25] = target: Neu5Ac(a2-3)Gal(b1-4)[Fuc(a1-3)]GlcNAc(b1-3)Gal(b1-4)[Fuc(a1-3)]GlcNAc(b1-3)Gal(b1-4)[Fuc(a1-3)]GlcNAc
Summary of the method: as §1

[26] = target: Neu5Ac(a2-3)Gal(b1-4)[Fuc(a1-3)]GlcNAc(b1-3)GalNAc
Summary of the method: as §1

[27] = target: Neu5Ac(a2-3)Gal(b1-4)[Fuc(a1-3)]GlcNAc(b1-6)[Gal(b1-3)]GalNAc
Summary of the method: as §1

[28] = target: Neu5Ac(a2-3)Gal(b1-4)[Fuc(a1-3)]GlcNAc(b1-6)[Neu5Ac(a2-3)Gal(b1-3)]GalNAc
Summary of the method: as §1

[29] = target: Neu5Ac(a2-3)Gal(b1-4)[Fuc(a1-3)]GlcNAc6S
Summary of the method: as §1

[30] = target: Neu5Ac(a2-3)Gal6S(b1-4)GlcNAc
Summary of the method: as §1

[31] = target: Neu5Ac(a2-3)Gal6S(b1-4)[Fuc(a1-3)]GlcNAc
Summary of the method: as §1

Neu5Ac(a2-3)GalNAc = target: Neu5Ac(a2-3)GalNAc
Summary of the method: as §1

[32] = target: Neu5Ac(a2-3)GalNAc(b1-4)GlcNAc
Summary of the method: as §1

[33] = target: Neu5Ac(a2-3)[GalNAc(b1-4)]Gal(b1-4)Glc
Summary of the method: as §1

[34] = target: Neu5Ac(a2-3)[GalNAc(b1-4)]Gal(b1-4)GlcNAc
Summary of the method: as §1

[35] = target: Neu5Ac(a2-3)[GalNAc(b1-4)]Gal(b1-4)GlcNAc(b1-3)GalNAc
Summary of the method: as §1

[36] = target: Neu5Ac(a2-3)[Neu5Ac(a2-6)]GalNAc
Summary of the method: as §1

B1: SP15308C-bot-338-23-338 (Bacteroides ovatus) (protein)
chain: DEWTDEQFKQLISFKTQPGGWGVTDVHVRYANSAKYTYNLPVLVSGSTDNTDDRLVSFSLRDDTLDILNFEKFGNRPELYFRELPQKYYSFPKELTIPAGQSHALLPIEFSLDGLDDSQKWALPLKVCEDANGTYAVNPRKYYRTAVLRPILFNEFSGRFSGSSLLGTMAGESDIKFSSTEIKLNVVTDSIVFFYAGQRTEDYEDRINYKVFLQFTGDKVDSKKDLYKMKIWAENEKLKFNSYSTPTYKVSSEMDATKTYLKHTYIVISDIDFDFVDYTSVPNYEIEYNMKGGLSVSRDLDTRKPDEDQGSDSKWW
Q: With B1 as the binder, how does the “glycan array binding signal (z-score)” value [1] read?
A: -0.286

Q: What about the “glycan array binding signal (z-score)” value [2] of the same binder?
A: -0.025

Q: And the “glycan array binding signal (z-score)” value [3]?
A: 0.382

Q: What about the “glycan array binding signal (z-score)” value [4] of the same binder?
A: -0.756

Q: What about the “glycan array binding signal (z-score)” value [5] of the same binder?
A: 0.337

Q: What about the “glycan array binding signal (z-score)” value [6] of the same binder?
A: -0.319

Q: What about the “glycan array binding signal (z-score)” value [7] of the same binder?
A: -0.078

Q: And the “glycan array binding signal (z-score)” value [8]?
A: -0.056

Q: And the “glycan array binding signal (z-score)” value [9]?
A: 0.532

Q: And the “glycan array binding signal (z-score)” value [10]?
A: 0.621

Q: And the “glycan array binding signal (z-score)” value [11]?
A: -0.584

Q: What about the “glycan array binding signal (z-score)” value [12] of the same binder?
A: 0.638

Q: And the “glycan array binding signal (z-score)” value [13]?
A: 0.146

Q: And the “glycan array binding signal (z-score)” value [14]?
A: -0.432

Q: And the “glycan array binding signal (z-score)” value [15]?
A: -0.558

Q: And the “glycan array binding signal (z-score)” value [16]?
A: -0.252

Q: And the “glycan array binding signal (z-score)” value [17]?
A: -0.912

Q: What about the “glycan array binding signal (z-score)” value [18] of the same binder?
A: -0.853

Q: What about the “glycan array binding signal (z-score)” value [19] of the same binder?
A: -0.219

Q: And the “glycan array binding signal (z-score)” value [20]?
A: 0.009

Q: And the “glycan array binding signal (z-score)” value [21]?
A: -0.437

Q: And the “glycan array binding signal (z-score)” value [22]?
A: 0.13

Q: What about the “glycan array binding signal (z-score)” value [23] of the same binder?
A: -0.325

Q: What about the “glycan array binding signal (z-score)” value [24] of the same binder?
A: -0.269

Q: What about the “glycan array binding signal (z-score)” value [25] of the same binder?
A: -0.739

Q: And the “glycan array binding signal (z-score)” value [26]?
A: 3.23

Q: What about the “glycan array binding signal (z-score)” value [27] of the same binder?
A: 1.72

Q: What about the “glycan array binding signal (z-score)” value [28] of the same binder?
A: 0.418

Q: And the “glycan array binding signal (z-score)” value [29]?
A: -0.932

Q: What about the “glycan array binding signal (z-score)” value [30] of the same binder?
A: -1.16

Q: What about the “glycan array binding signal (z-score)” value [31] of the same binder?
A: -0.88

Q: And the “glycan array binding signal (z-score)” value (Neu5Ac(a2-3)GalNAc)?
A: -0.419

Q: What about the “glycan array binding signal (z-score)” value [32] of the same binder?
A: -0.736

Q: What about the “glycan array binding signal (z-score)” value [33] of the same binder?
A: -0.825

Q: What about the “glycan array binding signal (z-score)” value [34] of the same binder?
A: -0.753

Q: And the “glycan array binding signal (z-score)” value [35]?
A: -0.37

Q: What about the “glycan array binding signal (z-score)” value [36] of the same binder?
A: 0.544
